Assay [1] has as its target acetyltransferase P300 (EP300), endogenous (human (endogenous in SW620 and LOVO)) (UniProt Q09472). The assay can be described thus: co-IP; endogenous co-immunoprecipitation from SW620 and LOVO cell lysates; 2 ug antibody 8 h at 4 C, Protein A/G magnetic beads, Western blot. (A western blot detects proteins with antibodies after separation by electrophoresis.)
Assay [2] has as its target Myc-HMGB1 (UniProt P09429). The assay can be described thus: co-IP; exogenous co-immunoprecipitation of Flag-MSI2 and Myc-HMGB1 in HEK 293 T cells; 2 ug antibody 8 h at 4 C, Protein A/G magnetic beads, Western blot.

The chains behind the UniProt entries cited, without tags or fusion partners.
UniProt Q09472: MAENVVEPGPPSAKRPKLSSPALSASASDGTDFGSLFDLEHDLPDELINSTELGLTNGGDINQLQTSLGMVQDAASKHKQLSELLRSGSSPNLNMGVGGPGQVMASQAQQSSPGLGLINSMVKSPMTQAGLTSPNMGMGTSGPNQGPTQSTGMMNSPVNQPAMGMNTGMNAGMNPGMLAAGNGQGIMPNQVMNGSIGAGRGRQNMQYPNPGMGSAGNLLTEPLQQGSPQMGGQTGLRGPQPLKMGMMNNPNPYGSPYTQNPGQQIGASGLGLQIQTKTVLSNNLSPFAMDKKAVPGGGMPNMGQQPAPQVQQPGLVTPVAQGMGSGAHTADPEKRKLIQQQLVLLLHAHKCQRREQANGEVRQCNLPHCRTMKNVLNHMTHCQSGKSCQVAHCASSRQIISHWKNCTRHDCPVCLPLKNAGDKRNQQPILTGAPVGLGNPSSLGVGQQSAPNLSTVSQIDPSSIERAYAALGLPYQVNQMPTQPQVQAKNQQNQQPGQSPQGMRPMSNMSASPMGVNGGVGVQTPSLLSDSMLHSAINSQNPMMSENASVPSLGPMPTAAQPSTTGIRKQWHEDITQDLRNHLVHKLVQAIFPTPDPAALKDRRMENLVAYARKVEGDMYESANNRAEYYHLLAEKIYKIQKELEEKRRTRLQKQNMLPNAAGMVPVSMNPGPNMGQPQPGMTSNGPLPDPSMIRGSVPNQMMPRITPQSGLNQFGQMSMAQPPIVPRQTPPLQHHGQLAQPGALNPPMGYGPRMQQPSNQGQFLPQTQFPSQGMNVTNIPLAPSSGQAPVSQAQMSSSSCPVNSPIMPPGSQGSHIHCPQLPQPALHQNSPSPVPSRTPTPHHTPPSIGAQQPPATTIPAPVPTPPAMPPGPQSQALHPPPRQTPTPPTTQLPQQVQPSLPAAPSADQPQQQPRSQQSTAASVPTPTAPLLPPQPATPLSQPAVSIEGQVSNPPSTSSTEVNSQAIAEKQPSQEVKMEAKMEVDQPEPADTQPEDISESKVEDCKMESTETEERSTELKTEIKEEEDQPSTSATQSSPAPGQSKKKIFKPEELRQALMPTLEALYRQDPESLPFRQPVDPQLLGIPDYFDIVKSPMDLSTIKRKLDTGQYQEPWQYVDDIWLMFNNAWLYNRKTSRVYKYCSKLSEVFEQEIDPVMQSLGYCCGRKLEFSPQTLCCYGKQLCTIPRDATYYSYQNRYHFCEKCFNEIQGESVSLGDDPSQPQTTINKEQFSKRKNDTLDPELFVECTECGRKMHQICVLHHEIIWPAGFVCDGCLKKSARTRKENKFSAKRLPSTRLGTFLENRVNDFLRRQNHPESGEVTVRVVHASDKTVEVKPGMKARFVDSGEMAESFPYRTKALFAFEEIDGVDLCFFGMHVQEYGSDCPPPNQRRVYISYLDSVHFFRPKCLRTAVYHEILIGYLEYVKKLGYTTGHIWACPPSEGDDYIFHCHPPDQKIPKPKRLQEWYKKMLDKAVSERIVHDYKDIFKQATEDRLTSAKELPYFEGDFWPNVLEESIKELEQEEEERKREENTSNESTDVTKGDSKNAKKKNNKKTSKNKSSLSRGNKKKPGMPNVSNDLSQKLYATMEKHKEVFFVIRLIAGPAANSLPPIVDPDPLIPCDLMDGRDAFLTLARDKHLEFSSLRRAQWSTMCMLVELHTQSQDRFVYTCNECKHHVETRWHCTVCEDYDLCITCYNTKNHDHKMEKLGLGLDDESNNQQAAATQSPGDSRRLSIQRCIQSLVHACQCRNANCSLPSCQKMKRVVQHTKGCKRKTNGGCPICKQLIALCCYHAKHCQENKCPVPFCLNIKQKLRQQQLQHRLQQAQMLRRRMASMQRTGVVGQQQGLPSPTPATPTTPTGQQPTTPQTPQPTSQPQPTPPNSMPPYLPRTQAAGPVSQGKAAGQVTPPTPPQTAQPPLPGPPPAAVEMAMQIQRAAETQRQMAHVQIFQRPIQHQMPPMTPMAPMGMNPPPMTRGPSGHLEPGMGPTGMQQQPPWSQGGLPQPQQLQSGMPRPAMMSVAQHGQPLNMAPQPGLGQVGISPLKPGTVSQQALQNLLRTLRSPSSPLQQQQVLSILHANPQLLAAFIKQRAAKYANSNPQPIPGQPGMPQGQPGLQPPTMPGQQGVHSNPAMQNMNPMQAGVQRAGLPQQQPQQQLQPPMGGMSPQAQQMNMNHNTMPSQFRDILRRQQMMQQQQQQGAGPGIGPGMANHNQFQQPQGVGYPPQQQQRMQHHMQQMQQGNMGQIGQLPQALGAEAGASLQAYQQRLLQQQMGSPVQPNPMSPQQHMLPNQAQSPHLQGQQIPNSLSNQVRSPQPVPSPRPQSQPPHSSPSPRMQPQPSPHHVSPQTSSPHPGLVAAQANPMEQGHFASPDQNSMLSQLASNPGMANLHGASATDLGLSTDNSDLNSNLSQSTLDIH
UniProt P09429: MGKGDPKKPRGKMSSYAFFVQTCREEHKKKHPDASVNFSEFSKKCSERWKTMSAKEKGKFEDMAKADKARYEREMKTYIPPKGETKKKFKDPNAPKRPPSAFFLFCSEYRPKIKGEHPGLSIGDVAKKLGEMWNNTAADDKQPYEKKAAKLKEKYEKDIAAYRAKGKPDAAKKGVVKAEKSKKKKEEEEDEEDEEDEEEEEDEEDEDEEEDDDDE
UniProt Q96DH6: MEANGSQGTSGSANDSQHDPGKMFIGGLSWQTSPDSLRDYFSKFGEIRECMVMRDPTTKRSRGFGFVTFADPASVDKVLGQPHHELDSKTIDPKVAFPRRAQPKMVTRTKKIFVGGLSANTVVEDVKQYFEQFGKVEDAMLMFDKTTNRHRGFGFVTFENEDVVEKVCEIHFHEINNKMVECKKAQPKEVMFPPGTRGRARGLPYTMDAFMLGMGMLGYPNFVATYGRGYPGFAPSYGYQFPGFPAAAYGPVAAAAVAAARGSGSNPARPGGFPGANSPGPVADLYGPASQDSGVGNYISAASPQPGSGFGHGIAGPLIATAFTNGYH

No constants are given. Whether binding was seen depends on the method and setting. Binding seen in cells or lysates may run through a third protein. Some entries that bind do so weakly or less than the wild type.

In the case of “Musashi-2 (MSI2), endogenous (from UniProt Q96DH6 1-328)”, the binding result in assay [1] was “binds”.
As to Flag-MSI2 (from UniProt Q96DH6 1-328), the binding result in assay [2] was “no binding”.

(Values after PMC10863188.)
